Data as given in US20240209062A1 (INVETX, published 2024).
Results are given in words; binding and its absence hold for the method and conditions named. Some binding calls cover weakened binding; strength is not graded here. Where a sequence is shown, tags or fusion partners need not be part of it.

Sequences of proteins named here, by UniProt entry; tags and fusion partners are left off. A change or cut given only in a name is not applied to a line headed by its entry.
UniProt Q5MGS7: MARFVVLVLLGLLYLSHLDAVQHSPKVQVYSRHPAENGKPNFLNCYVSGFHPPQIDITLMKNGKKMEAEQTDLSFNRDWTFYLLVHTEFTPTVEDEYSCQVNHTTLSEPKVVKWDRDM

Target: feline FcRn (soluble portion of large subunit p51 isoform X1 with C-terminal 6xHis-tag, co-expressed with feline beta2-microglobulin with C-terminal STREP-TAG II) (feline) (UniProt Q5MGS7)
Experiment: SPR, pH 5.9

binding	Binder
binds	IgG with feline IgG1a Fc variant S428M, T286D (antibody, IgG1a constant domain with MALA mutations (M234A, L244A as printed); variable domains from WO 2023/97275) heavy: DVQLVESGGDLVKPGGSLRLTCVASGLSLTSDSMSWVRQAPGKGLQWVSTLWSNRGTYYTDSVKGRFTISKDNAENTLYLQMNNLKTEDTATYYCASIYYYEADYLHWYFDFWGQGALVTVSSASTTAPSVFPLAPSCGTTSGATVALACLVLGYFPEPVTVSWNSGALTSGVHTFPAVLQASGLYSLSSMVTVPSSRWLSDTFTCNVAHPPSNTKVDKTVRKTDHPPGPKPCDCPKCPPPEAAGGPSIFIFPPKPKDTLSISRTPEVTCLVVDLGPDDSDVQITWFVDNTQVYDAKTSPREEQFNSTYRVVSVLPILHQDWLKGKEFKCKVNSKSLPSPIERTISKAKGQPHEPQVYVLPPAQEELSRNKVSVTCLIKSFHPPDIAVEWEITGQPEPENNYRTTPPQLDSDGTYFVYSKLSVDRSHWQRGNTYTCSVMHEALHSHHTQKSLTQSPG light: EIQMTQSPTSLSASVGDRVTITCRASEGIANNLSWYQQTPGKAPKLLIYATSNLHSGVPSRFSGSGSGTDFTLTISSLQPEDFATYYCQQGFKWPLTFGGGTKLEITRSDAQPSVFLFQPSLDELHTGSASIVCILNDFYPKEVNVKWKVDGVVQNKGIQESTTEQNSKDSTYSLSSTLTMSSTEYQSHEKFSCEVTHKSLASTLVKSFNRSECQRE
binds	IgG with feline IgG1a Fc variant S428M, T286E (antibody, IgG1a constant domain with MALA mutations (M234A, L244A as printed); variable domains from WO 2023/97275) heavy: DVQLVESGGDLVKPGGSLRLTCVASGLSLTSDSMSWVRQAPGKGLQWVSTLWSNRGTYYTDSVKGRFTISKDNAENTLYLQMNNLKTEDTATYYCASIYYYEADYLHWYFDFWGQGALVTVSSASTTAPSVFPLAPSCGTTSGATVALACLVLGYFPEPVTVSWNSGALTSGVHTFPAVLQASGLYSLSSMVTVPSSRWLSDTFTCNVAHPPSNTKVDKTVRKTDHPPGPKPCDCPKCPPPEAAGGPSIFIFPPKPKDTLSISRTPEVTCLVVDLGPDDSDVQITWFVDNTQVYEAKTSPREEQFNSTYRVVSVLPILHQDWLKGKEFKCKVNSKSLPSPIERTISKAKGQPHEPQVYVLPPAQEELSRNKVSVTCLIKSFHPPDIAVEWEITGQPEPENNYRTTPPQLDSDGTYFVYSKLSVDRSHWQRGNTYTCSVMHEALHSHHTQKSLTQSPG light: EIQMTQSPTSLSASVGDRVTITCRASEGIANNLSWYQQTPGKAPKLLIYATSNLHSGVPSRFSGSGSGTDFTLTISSLQPEDFATYYCQQGFKWPLTFGGGTKLEITRSDAQPSVFLFQPSLDELHTGSASIVCILNDFYPKEVNVKWKVDGVVQNKGIQESTTEQNSKDSTYSLSSTLTMSSTEYQSHEKFSCEVTHKSLASTLVKSFNRSECQRE
